Measured values taken from PMC12597689.
Results are given in words; binding and its absence hold for the method and conditions named. In cells and extracts the contact can be indirect. Here binding means that the protein was enriched with, or labelled near, the bait; the list need not be complete.

Chains of the proteins cited; added tags and fusions are not shown.
UniProt Q13148: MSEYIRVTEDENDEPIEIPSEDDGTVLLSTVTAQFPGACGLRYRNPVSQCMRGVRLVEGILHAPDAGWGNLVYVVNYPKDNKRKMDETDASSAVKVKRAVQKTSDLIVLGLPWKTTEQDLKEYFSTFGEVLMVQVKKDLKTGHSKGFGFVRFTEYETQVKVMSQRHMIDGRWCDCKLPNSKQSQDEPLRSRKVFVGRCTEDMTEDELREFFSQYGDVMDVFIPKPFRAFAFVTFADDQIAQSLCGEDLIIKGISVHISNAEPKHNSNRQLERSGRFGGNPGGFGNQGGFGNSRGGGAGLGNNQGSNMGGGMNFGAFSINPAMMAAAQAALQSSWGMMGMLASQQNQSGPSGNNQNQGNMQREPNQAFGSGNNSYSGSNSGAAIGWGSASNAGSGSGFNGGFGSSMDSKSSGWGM
UniProt Q12756: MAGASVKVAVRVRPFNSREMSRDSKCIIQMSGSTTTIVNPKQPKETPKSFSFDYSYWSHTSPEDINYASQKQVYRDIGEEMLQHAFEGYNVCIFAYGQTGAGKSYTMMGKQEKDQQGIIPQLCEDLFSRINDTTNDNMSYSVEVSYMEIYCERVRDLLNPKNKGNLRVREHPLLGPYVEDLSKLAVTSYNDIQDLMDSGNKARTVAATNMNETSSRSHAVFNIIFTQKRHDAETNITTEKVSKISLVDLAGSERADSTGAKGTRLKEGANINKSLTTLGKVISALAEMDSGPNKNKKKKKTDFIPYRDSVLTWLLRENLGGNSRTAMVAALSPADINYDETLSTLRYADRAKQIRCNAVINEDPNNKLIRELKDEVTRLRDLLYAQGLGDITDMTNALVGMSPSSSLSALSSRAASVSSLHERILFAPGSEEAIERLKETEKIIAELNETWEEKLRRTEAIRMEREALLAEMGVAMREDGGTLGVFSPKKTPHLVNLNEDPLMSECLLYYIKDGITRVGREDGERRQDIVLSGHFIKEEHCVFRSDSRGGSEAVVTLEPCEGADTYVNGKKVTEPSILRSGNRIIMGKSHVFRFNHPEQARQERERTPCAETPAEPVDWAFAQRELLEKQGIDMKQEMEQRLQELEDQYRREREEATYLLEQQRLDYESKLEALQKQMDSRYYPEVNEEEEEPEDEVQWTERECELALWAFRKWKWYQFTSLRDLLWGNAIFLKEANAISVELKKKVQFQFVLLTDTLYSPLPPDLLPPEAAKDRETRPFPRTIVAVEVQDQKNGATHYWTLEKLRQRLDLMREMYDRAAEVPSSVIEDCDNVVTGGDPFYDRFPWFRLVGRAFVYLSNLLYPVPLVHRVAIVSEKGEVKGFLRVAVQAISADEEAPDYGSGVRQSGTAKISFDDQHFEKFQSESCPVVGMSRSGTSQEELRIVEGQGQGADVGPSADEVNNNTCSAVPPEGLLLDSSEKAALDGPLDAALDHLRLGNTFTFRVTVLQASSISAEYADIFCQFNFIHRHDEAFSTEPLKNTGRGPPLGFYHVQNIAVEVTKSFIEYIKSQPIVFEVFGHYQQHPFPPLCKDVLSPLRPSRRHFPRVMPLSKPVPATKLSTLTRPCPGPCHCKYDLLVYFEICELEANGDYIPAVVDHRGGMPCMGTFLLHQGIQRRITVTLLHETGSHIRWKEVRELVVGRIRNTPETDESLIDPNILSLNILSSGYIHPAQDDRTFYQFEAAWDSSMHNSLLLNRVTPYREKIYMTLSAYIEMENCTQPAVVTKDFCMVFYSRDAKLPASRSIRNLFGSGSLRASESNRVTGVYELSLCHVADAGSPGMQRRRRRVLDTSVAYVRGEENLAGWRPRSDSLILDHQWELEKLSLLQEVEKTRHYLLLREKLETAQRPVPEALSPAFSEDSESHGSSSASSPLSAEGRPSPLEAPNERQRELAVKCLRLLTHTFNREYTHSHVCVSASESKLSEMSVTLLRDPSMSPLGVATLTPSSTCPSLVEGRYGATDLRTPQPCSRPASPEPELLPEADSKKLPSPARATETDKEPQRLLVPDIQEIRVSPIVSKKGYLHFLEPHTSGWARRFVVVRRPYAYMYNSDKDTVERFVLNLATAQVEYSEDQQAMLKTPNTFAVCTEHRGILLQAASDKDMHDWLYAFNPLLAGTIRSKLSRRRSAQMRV
UniProt Q7Z4S6: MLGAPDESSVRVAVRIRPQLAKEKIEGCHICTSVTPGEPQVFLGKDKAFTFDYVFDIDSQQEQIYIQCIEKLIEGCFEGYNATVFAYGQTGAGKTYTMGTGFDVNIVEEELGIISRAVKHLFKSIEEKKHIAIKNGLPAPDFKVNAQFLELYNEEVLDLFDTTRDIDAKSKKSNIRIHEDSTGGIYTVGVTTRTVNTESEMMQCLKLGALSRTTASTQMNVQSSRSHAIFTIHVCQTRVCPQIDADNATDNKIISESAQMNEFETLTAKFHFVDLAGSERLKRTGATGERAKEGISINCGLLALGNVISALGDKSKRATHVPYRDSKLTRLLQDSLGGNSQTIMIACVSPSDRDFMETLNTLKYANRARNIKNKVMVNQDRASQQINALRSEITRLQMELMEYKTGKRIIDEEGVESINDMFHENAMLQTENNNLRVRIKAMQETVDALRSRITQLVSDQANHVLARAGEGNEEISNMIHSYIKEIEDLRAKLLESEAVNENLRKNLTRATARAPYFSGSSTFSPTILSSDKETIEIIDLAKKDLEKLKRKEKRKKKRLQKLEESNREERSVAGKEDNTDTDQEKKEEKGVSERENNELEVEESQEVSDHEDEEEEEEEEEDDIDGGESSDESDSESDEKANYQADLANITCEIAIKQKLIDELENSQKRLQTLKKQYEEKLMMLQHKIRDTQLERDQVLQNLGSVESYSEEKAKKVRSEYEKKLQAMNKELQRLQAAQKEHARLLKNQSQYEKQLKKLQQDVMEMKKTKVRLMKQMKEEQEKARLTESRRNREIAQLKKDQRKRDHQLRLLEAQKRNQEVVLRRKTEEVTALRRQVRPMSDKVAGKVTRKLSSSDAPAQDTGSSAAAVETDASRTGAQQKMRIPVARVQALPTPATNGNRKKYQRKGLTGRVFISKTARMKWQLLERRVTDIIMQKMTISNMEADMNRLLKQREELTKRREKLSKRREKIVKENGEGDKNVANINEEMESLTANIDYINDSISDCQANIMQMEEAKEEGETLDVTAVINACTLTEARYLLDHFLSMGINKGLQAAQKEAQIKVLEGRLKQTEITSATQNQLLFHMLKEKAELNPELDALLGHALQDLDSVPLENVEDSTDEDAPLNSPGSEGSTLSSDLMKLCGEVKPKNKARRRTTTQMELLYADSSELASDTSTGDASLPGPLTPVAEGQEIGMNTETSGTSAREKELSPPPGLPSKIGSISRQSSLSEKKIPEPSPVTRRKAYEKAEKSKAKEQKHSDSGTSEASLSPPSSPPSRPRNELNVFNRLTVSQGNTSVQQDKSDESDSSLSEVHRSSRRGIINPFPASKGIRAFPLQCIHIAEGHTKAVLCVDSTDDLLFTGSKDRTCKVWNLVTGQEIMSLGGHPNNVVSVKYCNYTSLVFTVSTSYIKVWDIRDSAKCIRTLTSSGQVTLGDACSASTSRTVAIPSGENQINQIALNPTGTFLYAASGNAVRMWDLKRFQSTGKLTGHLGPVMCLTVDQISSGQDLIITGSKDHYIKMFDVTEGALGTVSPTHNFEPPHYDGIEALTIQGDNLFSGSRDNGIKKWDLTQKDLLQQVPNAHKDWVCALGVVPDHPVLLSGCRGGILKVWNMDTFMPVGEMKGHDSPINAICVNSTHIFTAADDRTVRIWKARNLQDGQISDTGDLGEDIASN
UniProt O75037: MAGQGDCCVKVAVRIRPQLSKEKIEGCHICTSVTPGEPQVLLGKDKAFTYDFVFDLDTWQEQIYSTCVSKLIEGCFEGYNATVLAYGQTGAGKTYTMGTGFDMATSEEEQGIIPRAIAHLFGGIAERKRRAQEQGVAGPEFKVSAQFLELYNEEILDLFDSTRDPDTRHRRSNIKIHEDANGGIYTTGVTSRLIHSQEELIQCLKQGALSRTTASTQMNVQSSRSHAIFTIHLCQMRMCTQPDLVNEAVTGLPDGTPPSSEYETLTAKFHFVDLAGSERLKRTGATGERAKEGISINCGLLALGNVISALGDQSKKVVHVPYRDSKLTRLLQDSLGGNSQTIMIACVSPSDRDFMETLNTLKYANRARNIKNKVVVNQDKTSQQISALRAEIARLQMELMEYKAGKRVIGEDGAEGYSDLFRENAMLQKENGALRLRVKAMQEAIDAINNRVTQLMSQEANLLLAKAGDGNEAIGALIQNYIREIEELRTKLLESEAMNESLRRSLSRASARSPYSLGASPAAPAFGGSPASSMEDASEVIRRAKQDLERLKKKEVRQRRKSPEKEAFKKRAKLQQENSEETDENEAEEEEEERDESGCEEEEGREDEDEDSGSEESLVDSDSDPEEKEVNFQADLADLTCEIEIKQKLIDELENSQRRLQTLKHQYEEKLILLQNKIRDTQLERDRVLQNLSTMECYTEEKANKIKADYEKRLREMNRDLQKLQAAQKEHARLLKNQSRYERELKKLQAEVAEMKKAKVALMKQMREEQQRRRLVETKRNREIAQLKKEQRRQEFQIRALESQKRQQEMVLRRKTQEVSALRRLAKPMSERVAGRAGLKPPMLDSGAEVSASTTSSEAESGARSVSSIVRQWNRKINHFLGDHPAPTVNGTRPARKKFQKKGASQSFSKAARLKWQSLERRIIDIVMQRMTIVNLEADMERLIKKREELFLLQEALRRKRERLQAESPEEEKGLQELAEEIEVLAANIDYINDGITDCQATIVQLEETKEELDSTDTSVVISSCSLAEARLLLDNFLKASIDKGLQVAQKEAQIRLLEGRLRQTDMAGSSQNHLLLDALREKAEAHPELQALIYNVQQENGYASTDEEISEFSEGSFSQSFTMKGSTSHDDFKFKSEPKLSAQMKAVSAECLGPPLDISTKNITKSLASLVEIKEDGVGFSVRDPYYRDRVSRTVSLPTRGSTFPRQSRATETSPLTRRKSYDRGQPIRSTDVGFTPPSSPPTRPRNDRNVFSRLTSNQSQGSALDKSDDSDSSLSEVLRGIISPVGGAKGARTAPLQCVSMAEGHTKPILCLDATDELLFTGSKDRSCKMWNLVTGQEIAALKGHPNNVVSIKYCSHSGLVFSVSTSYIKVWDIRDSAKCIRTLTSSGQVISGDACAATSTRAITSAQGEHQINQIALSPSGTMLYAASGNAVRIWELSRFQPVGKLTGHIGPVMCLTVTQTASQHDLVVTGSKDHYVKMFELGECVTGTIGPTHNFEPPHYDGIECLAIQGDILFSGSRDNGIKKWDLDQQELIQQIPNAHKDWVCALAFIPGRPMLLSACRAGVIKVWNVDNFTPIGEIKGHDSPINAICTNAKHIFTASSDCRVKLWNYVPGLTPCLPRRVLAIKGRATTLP
UniProt P50995: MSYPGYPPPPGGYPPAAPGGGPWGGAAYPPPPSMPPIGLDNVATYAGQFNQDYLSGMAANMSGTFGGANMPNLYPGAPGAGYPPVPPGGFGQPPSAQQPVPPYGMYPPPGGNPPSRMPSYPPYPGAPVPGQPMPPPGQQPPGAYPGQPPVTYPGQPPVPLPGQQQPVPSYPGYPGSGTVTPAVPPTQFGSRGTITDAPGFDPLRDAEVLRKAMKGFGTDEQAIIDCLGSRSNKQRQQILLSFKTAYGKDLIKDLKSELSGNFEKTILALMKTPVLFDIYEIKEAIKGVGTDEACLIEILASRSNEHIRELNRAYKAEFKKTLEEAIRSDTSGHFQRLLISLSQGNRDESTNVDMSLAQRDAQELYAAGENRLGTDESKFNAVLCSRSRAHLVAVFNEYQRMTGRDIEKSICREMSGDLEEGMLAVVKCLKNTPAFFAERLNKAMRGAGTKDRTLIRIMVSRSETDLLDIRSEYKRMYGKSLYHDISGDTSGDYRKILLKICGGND
UniProt Q07866: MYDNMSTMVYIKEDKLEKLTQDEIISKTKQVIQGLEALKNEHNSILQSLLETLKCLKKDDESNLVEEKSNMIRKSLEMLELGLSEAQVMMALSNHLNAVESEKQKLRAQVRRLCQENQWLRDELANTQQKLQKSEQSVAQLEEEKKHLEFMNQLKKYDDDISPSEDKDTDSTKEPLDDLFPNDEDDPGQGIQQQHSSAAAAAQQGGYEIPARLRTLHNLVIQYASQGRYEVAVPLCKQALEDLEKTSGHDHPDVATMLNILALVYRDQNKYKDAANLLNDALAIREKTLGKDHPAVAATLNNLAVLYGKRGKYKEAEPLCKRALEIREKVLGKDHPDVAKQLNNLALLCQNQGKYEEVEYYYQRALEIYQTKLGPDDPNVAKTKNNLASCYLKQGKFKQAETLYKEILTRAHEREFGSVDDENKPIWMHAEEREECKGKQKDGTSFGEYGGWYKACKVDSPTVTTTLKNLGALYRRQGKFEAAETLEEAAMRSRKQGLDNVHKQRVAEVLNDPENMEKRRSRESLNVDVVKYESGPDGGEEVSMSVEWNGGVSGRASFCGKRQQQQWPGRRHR

Assays:
[1] = target: transactive response DNA binding protein 43 kDa (human (endogenous in iPSC-derived motor neurons)) (UniProt Q13148); assay: affinity purification with mass spectrometry; anti-TDP-43 (N-terminal) antibody coupled to M-270 epoxy beads; about 1 mg protein of iPSC-neuron lysate (control and KIF1A mutant neurons), 12 to 16 hours at 4°C; eluate analysed by LC-MS/MS
[2] = target: kinesin-like protein KIF1A, wild type (human (endogenous in iPSC-derived motor neurons)) (UniProt Q12756); assay: affinity purification with mass spectrometry; anti-KIF1A antibody coupled to M-270 epoxy beads; about 1 mg protein of iPSC-neuron lysate (control and KIF1A mutant neurons), 12 to 16 hours at 4°C; eluate analysed by LC-MS/MS

binding [1] | binding [2] | Substance
binds | – | ANXA5 (from UniProt P08758 1-320)
binds | – | KIF21A (from UniProt Q7Z4S6 1-1674)
binds | – | KIF21B (from UniProt O75037 1-1637)
binds | – | annexin-11 (from UniProt P50995 1-505)
– | binds | kinesin light chain protein 1 (from UniProt Q07866 1-573)
binds | binds | kinesin light chain protein 2 (from UniProt Q9H0B6 1-622)
binds | binds | kinesin light chain protein 4 (from UniProt Q9NSK0 1-619)
